Measured values as given in PubChem BioAssay AID504850 (National Center for Advancing Translational Sciences (NCATS), 2011).
Out of some 2,300 compounds screened, about 1,200 (52%) were called active. The set was probably picked from earlier hits. Inconclusive results, whose numbers are uncertain, are shown with a selection of clear calls. Calls follow the shape of the dose curve; as a rule, active = well fitted inhibition curve with a large enough effect; inconclusive = small, poorly fitted or top-dose-only effect, or effect the other way; inactive = no such curve, though single readings can be large or run the other way. Where the call is inconclusive, the potency comes from a doubtful curve fit.
% is scaled to controls: 0 for no effect and ±100 for the full control effect; potency is read from the fitted curve at half-maximal effect.

Assay: Confirmation screen for delayed death inhibitors of the malarial parasite plastid, 48 hour incubation; also: nearly all actives have a fitted effect of over 65% in size
Details: P. falciparum-infected erythrocytes, luciferase growth; series mostly up to 28.7 µM; activity change, negative = inhibition: at the top concentration
How it was run: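 Erythrocytes infected with luciferase-expressing P. falciparum (2% hematocrit, 0.1% parasitemia) incubated with compounds 48 hours at 37 C, 5% CO2, in RPMI/Albumax. Growth inhibition scored as reduced luminescence after detection reagent.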
With `CCOc1ccc(S(=O)(=O)Nc2cc(S(=O)(=O)N(CC)CC)ccc2N2CCCC2)cc1` the Potency was active: 2.51 µM. In the case of `CCc1noc(C)c1C(=O)NC1CC(C)(C)Cc2c1cnn2-c1ccccc1` (stereo not drawn), the Potency is reported as active: 15.8 µM. In the case of `Cc1cccc(/C=C/C(=O)c2ccc(NC3=NCCCS3)cc2)c1`, the Potency is reported as inconclusive: 15.8 µM [inhibitor, single point]. For `CC(C)OCCCNC(=O)COc1ccc2oc3c(c2c1)CCCC3`, the Potency was inconclusive: 22.4 µM [inhibitor, single point]. With `COc1ccc(-n2ncc3c2CC(C)(C)CC3NC(=O)CCN2CCCCC2=O)cc1` (stereo not drawn) the Potency was inconclusive: 2.24 µM [inhibitor, full curve]. With `COc1ccccc1OCC(=O)Nc1cc(Cl)ccc1Oc1ccccc1` the “activity change, negative = inhibition” value was inactive: -11.9%. For `Cc1ccc(C(=O)NCCn2ccc3ccccc32)cc1[N+](=O)[O-]`, the “activity change, negative = inhibition” value was inactive: 20.4%. In the case of `COc1ccc(C)cc1-n1c(SCC(=O)Nc2cc(C)on2)nc2sc(C)c(C)c2c1=O`, the Potency is reported as active: 2.51 µM. In the case of `Cc1cccc(C(=O)NNC(=S)NC(=O)c2cccs2)c1`, the Potency is reported as inconclusive: 15.8 µM [inhibitor, single point]. For `Cc1cnc(NC(=O)COc2cccc3c2OC(C)(C)C3)s1`, the Potency was inconclusive: 14.1 µM [inhibitor, partial curve, poor fit]. For `COCCN1CCCC(CNCc2cn(C)nc2-c2ccc(Oc3ccccc3)cc2)C1` (stereo not drawn), the Potency was active: 7.94 µM. With `O=C(N[C@@H](Cc1ccccc1)C(=O)CCl)OCc1ccccc1` the “activity change, negative = inhibition” value was inactive: 2.15%. For `O=C(O)CCCCCNc1nc(-c2ccccc2)nc2ccccc12`, the Potency was active: 12.6 µM. For `C=CCn1c(C)cc(C2=NNC(=NCc3ccccc3)SC2)c1C`, the Potency was inconclusive: 15.8 µM [inhibitor, single point]. In the case of `CC(C)(C)C(=O)/C(=C\c1cccc([N+](=O)[O-])c1)n1cncn1`, the Potency is reported as active: 14.1 µM. With `O=[N+]([O-])c1ccc(N2CCN(c3ccccc3)CC2)nc1` the “activity change, negative = inhibition” value was inactive: 24.3%. With `Cc1nnc(N2CCCC(C(=O)NCc3cccc(F)c3)C2)c2nn(-c3ccccc3)c(C)c12` (stereo not drawn) the Potency was inconclusive: 14.1 µM [inhibitor, single point]. In the case of `COC(=O)C1C(=O)C(C(=O)/C=C/c2ccccc2)C(=O)CC1(C)C` (stereo not drawn), the Potency is reported as inconclusive: 22.4 µM [inhibitor, single point]. In the case of `Cc1cccc(CN2CCC(C(=O)Nc3ccc(-n4nc(C)cc4C)cc3)CC2)n1`, the Potency is reported as inconclusive: 14.1 µM [inhibitor, partial curve, poor fit]. With `C/C=C(\C)CN1CCc2cc(OC)c(OC)cc2C1` the “activity change, negative = inhibition” value was inactive: -12.9%. For `CC(C)NC(=O)NC(=O)COC(=O)c1ccccc1Oc1ccccc1`, the “activity change, negative = inhibition” value was inactive: -39.6%. In the case of `COC(=O)c1c(NC(=O)c2cccc(N3C(=O)CCC3=O)c2)sc2c1CCN(C(C)=O)C2`, the Potency is reported as inconclusive: 14.1 µM [inhibitor, single point]. For `O=c1c(Cl)c(Cl)cnn1Cc1nnc(-c2ccccc2Br)o1`, the Potency was inconclusive: 14.1 µM [inhibitor, single point]. In the case of `O=C(COCc1cc(-c2ccc3c(c2)OCO3)on1)N1CCCCC1`, the Potency is reported as inconclusive: 6.31 µM [activator, partial curve, poor fit]. With `O=C(CSc1nnc2ccc(-c3cccnc3)nn12)Nc1cccc(F)c1` the Potency was inconclusive: 12.6 µM [inhibitor, partial curve]. With `COc1ccc2c(CC(=O)OCC(=O)Nc3cccc(S(N)(=O)=O)c3)coc2c1` the “activity change, negative = inhibition” value was inactive: -6.93%. In the case of `COc1ccc(OC)c(C(=O)NC2CC(C)(C)Cc3c2cnn3-c2ccccc2)c1` (stereo not drawn), the Potency is reported as inconclusive: 14.1 µM [inhibitor, single point]. For `O=C(c1ccccc1Br)N1CCN(c2ccccn2)CC1`, the “activity change, negative = inhibition” value was inactive: 5.69%. With `COc1ccc(Cl)cc1NC(=O)C(=O)NCc1ccncc1` the “activity change, negative = inhibition” value was inactive: -9.93%. With `CCCn1c(N)c(C(=O)CSc2nc3ccccc3s2)c(=O)[nH]c1=O` the Potency was inconclusive: 10 µM [inhibitor, partial curve]. In the case of `Cc1cc(Cl)c(OCCn2ccnc2)c(Br)c1`, the Potency is reported as inconclusive: 14.1 µM [inhibitor, single point]. For `CCCn1nc([N+](=O)[O-])c(C(C#N)c2nc3ccccc3o2)c(Cl)c1=O` (stereo not drawn), the Potency was inconclusive: 3.55 µM [inhibitor, partial curve]. With `CCCn1c(=NC(=O)CCS(=O)(=O)c2ccccc2)sc2cc(S(N)(=O)=O)ccc21` the Potency was inconclusive: 15.8 µM [inhibitor, single point]. With `CCN(CC)C(=O)C1CCCN(C(=O)c2cc(COc3ccc4ncccc4c3)on2)C1` (stereo not drawn) the Potency was active: 11.2 µM. In the case of `Cc1cc2nsnc2c(S(=O)(=O)N2CCN(C)CC2)c1C`, the “activity change, negative = inhibition” value is reported as inactive: -4.46%. For `CCOc1c(Cl)cc(C(=O)Nc2ccccc2C(=O)O)cc1Cl`, the “activity change, negative = inhibition” value was inactive: -9.43%. In the case of `Cc1cc(C(=O)NC2CCCc3c2cnn3-c2cccc(C)c2C)no1` (stereo not drawn), the “activity change, negative = inhibition” value is reported as inactive: -9.26%. With `O=c1c2ccccc2nnn1CSc1nnc(-c2cccs2)n1Cc1ccccc1` the Potency was inconclusive: 15.8 µM [inhibitor, partial curve, poor fit]. With `CC(C)CC1c2[nH]c3ccccc3c2CCN1C(=O)c1cnccn1` (stereo not drawn) the Potency was inconclusive: 15.8 µM [inhibitor, single point]. With `CCN1C(=O)[C@@H]2[C@@H](c3ccc(SC4CCCCC4)c(OC)c3)N3CCC[C@@]3(C(=O)OC)[C@@H]2C1=O` the Potency was active: 5.01 µM. For `COc1ccc(/C=N/NC(=O)c2ccoc2C)cc1COc1c(C)cccc1C`, the Potency was inconclusive: 7.94 µM [inhibitor, partial curve, poor fit]. In the case of `CC(=O)/C(C#N)=C1\NC(=O)C(Cc2ccc(C)c(C)c2)S1` (stereo not drawn), the Potency is reported as inconclusive: 15.8 µM [inhibitor, partial curve, poor fit]. For `O=C(CSc1nnc(-c2ccccc2Cl)o1)N1CCCCC1`, the Potency was inconclusive: 1.26 µM [activator, full curve]. In the case of `C=CCC(=O)N(CC)CC1CCCN(CCc2cccc(F)c2)C1` (stereo not drawn), the Potency is reported as inconclusive: 11.2 µM [inhibitor, partial curve]. For `Cc1ncc(CO)c(/C=N/NC(=S)Nc2ccc(F)cc2)c1O`, the Potency was active: 12.6 µM. For `CCc1ccc(CCC(=O)Nc2ccccc2C(=O)O)o1`, the Potency was inconclusive: 10 µM [activator, partial curve, poor fit]. For `Cc1ccc(-c2csc3ncn(CC#N)c(=O)c23)cc1C`, the “activity change, negative = inhibition” value was inactive: -28.7%. With `CC(C)C(=O)NCCSc1c[nH]c2ccccc12` the “activity change, negative = inhibition” value was inactive: -11.4%. For `Cc1ccc(-c2csc3nc[nH]c(=O)c23)cc1`, the “activity change, negative = inhibition” value was inactive: -1.08%. For `COC(=O)Nc1ccc2c(c1)N(C(=O)CCCl)c1ccccc1S2`, the Potency was inconclusive: 7.08 µM [activator, single point]. With `CC(C)c1ccc2[nH]c(O)c(N=NC(=O)c3ccc(CSc4nncn4C)cc3)c2c1` the Potency was inconclusive: 2.51 µM [inhibitor, full curve]. For `CC(C)Cc1ccc(CN2CCCC(NC(=O)CCn3cnnn3)C2)cc1` (stereo not drawn), the “activity change, negative = inhibition” value was inactive: -7.89%. In the case of `O=c1[nH]c(SCc2nc3c(cnn3-c3ccccc3)c(=O)[nH]2)nc2ccccc12`, the Potency is reported as inconclusive: 22.4 µM [inhibitor, single point]. With `CSc1c(CC(=O)Nc2ccccc2)n(C)c2ccccc12` the Potency was active: 8.91 µM. For `Cc1cccc(Oc2ccccc2NC(=O)CSCC(=O)Nc2cc(C)on2)c1`, the Potency was inconclusive: 14.1 µM [inhibitor, partial curve]. With `COc1ccc(NC(=O)N2CCCc3cc(C)ccc32)c(OC)c1` the Potency was active: 14.1 µM. In the case of `CCCCNC(=O)c1onc(CSc2ccc(Cl)cc2)c1C(=O)O`, the “activity change, negative = inhibition” value is reported as inactive: -7.43%. For `O=C(CCl)Nc1cn(-c2ccccc2)nc1-c1ccccc1`, the Potency was inconclusive: 15.8 µM [inhibitor, single point]. With `CCCCn1c(C2CCCCC2)nc2cc3[nH]c(=O)c(C(C)C)nc3cc21` the Potency was inconclusive: 14.1 µM [inhibitor, single point]. In the case of `Clc1ccccc1Cn1c(/C=C/c2ccco2)nc2ccccc21`, the Potency is reported as inconclusive: 14.1 µM [inhibitor, single point]. In the case of `COc1ccc(Nc2cc(Cl)ccc2C(=O)O)cn1`, the “activity change, negative = inhibition” value is reported as inactive: -43.1%. In the case of `S=c1nc2c(n[nH]1)c1ccccc1n2CCc1ccccc1`, the Potency is reported as inconclusive: 12.6 µM [inhibitor, single point]. In the case of `Cc1ccc(CC(=O)Nc2nc3c(s2)CCCC3)cc1`, the Potency is reported as inconclusive: 8.91 µM [activator, partial curve]. With `CCC(=O)N1CCc2cc(Br)cc(S(=O)(=O)NCc3ccco3)c21` the Potency was inconclusive: 15.8 µM [inhibitor, single point]. For `O=C(Nc1cccc(Cl)c1)Nc1ccccc1C(=O)O`, the Potency was inconclusive: 3.55 µM [activator, partial curve]. With `O=C(COc1ccccc1)N1c2ccccc2Sc2ccccc21` the Potency was active: 14.1 µM. In the case of `CN(c1ccccc1)S(=O)(=O)c1nnc(NC(=O)COc2ccccc2F)s1`, the Potency is reported as inconclusive: 14.1 µM [inhibitor, partial curve]. In the case of `O=c1c2c3c(sc2nc(NCCOCCO)n1Cc1ccco1)CCCCC3`, the Potency is reported as inconclusive: 15.8 µM [inhibitor, partial curve, poor fit]. For `C=CCNC(=O)c1onc(CSc2cc(C)cc(C)c2)c1C(=O)O`, the “activity change, negative = inhibition” value was inactive: -17.8%. For `Nc1ccccc1SSc1ccccc1N`, the Potency was inconclusive: 15.8 µM [inhibitor, single point]. In the case of `COc1ccc(CNC(=O)C2CCC(CNS(=O)(=O)c3cccc4cccnc34)CC2)cc1` (stereo not drawn), the Potency is reported as inconclusive: 15.8 µM [inhibitor, partial curve, poor fit]. For `O=C1C2CCCN2C(=O)N1CCCCN1CCN(c2cccc(Cl)c2)CC1` (stereo not drawn), the Potency was inconclusive: 12.6 µM [inhibitor, partial curve]. With `Cc1cc(C(=O)COc2cccnc2[N+](=O)[O-])c(C)n1-c1ccccc1F` the Potency was inconclusive: 15.8 µM [inhibitor, single point].
